This note sets out measurements from the supplement of paper PMC10849652.

The chains behind the UniProt entries cited, without tags or fusion partners. Where a name states a change or a piece, a line headed by the entry shows the natural chain unless it says otherwise.
UniProt Q96JM4: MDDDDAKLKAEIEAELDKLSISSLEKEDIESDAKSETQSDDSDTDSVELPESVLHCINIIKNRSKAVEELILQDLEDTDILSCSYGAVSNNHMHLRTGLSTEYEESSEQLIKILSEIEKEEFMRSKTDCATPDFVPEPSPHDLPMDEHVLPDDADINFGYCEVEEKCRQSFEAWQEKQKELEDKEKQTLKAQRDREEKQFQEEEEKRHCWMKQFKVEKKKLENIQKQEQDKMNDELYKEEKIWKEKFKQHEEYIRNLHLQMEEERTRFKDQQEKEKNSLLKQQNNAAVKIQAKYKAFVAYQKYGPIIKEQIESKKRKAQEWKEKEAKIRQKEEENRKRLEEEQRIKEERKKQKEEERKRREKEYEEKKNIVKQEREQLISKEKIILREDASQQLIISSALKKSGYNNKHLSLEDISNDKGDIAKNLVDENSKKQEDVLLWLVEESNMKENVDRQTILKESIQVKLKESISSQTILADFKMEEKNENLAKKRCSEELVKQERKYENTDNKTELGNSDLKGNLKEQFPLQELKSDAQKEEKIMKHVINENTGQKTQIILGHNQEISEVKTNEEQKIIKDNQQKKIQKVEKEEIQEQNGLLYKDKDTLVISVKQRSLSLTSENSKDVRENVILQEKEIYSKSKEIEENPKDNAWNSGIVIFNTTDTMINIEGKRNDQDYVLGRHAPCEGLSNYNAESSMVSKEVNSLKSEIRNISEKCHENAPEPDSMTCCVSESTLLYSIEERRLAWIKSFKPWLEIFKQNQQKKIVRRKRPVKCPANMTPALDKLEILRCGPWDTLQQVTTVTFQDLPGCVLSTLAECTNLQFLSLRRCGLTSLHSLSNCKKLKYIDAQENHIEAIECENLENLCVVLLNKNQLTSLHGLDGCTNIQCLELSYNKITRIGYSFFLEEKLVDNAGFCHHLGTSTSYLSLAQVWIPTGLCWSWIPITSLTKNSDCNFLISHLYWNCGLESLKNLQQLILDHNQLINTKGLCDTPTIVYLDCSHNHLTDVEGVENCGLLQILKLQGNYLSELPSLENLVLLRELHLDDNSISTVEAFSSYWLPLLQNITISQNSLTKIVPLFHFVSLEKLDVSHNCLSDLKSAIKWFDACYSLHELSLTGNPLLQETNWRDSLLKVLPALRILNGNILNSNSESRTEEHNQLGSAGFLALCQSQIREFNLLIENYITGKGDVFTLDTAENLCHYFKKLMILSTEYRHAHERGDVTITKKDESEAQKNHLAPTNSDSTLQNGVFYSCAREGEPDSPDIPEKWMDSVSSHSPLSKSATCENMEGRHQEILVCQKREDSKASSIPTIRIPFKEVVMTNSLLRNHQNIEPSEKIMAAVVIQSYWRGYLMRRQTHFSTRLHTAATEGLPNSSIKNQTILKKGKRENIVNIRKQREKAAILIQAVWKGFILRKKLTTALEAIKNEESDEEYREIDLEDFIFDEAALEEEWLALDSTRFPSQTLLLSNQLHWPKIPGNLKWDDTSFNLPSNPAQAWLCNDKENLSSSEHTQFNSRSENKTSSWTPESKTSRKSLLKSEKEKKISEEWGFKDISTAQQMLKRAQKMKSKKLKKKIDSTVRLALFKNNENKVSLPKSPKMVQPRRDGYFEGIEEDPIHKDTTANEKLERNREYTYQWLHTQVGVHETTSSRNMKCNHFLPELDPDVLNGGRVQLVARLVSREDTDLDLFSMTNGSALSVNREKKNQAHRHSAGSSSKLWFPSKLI
UniProt Q9UJU2, whole entry, looked up: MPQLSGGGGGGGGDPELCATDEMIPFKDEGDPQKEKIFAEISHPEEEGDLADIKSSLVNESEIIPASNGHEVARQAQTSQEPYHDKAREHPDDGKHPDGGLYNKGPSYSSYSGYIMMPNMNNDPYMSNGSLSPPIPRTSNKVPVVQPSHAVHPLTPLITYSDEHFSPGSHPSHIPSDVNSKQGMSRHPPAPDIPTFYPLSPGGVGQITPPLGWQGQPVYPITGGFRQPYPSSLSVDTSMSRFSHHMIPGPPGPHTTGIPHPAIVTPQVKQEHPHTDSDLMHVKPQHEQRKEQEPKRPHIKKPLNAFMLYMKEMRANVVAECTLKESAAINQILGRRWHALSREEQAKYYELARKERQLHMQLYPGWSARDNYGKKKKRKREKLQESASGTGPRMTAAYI
UniProt Q9Y2U8: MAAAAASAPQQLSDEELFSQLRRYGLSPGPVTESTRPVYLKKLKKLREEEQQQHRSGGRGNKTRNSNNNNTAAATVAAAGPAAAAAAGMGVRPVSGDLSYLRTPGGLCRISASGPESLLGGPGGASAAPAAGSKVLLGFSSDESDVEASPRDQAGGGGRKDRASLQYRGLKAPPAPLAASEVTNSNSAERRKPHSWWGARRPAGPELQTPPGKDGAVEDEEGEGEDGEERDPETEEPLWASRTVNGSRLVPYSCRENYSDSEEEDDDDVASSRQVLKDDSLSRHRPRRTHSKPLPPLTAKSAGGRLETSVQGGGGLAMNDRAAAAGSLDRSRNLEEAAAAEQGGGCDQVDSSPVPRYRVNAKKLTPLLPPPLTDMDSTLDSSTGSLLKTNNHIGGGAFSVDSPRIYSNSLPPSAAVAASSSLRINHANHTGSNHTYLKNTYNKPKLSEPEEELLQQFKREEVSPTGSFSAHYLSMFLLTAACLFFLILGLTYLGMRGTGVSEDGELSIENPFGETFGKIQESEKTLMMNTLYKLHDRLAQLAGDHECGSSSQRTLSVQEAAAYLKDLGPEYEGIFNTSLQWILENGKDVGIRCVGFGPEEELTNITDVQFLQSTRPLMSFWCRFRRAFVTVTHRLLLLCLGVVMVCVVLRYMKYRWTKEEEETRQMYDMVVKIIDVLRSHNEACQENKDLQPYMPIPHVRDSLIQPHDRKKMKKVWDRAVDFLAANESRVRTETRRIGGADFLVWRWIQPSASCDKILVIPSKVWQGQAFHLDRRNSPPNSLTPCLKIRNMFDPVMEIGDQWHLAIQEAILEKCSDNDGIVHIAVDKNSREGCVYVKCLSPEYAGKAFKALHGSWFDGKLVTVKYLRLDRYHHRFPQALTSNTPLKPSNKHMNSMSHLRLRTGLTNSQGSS
UniProt P80188: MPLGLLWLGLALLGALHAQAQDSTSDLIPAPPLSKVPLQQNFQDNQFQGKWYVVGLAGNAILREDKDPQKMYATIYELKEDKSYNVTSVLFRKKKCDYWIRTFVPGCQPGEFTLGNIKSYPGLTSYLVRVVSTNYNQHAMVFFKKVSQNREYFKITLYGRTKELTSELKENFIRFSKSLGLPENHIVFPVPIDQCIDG
UniProt Q8WVP7: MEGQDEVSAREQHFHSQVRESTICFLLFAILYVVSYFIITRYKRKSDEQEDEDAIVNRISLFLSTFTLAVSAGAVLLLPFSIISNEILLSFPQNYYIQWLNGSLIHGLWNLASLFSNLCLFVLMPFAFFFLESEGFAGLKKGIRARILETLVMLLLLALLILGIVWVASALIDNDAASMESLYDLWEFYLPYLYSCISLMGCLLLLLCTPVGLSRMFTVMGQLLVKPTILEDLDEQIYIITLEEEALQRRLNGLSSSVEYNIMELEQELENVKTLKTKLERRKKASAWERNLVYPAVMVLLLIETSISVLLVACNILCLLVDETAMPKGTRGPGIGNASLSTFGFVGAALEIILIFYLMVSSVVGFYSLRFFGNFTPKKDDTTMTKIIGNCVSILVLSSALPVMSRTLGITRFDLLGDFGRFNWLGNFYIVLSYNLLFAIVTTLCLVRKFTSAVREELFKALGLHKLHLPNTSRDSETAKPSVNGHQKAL
UniProt Q6NSJ5: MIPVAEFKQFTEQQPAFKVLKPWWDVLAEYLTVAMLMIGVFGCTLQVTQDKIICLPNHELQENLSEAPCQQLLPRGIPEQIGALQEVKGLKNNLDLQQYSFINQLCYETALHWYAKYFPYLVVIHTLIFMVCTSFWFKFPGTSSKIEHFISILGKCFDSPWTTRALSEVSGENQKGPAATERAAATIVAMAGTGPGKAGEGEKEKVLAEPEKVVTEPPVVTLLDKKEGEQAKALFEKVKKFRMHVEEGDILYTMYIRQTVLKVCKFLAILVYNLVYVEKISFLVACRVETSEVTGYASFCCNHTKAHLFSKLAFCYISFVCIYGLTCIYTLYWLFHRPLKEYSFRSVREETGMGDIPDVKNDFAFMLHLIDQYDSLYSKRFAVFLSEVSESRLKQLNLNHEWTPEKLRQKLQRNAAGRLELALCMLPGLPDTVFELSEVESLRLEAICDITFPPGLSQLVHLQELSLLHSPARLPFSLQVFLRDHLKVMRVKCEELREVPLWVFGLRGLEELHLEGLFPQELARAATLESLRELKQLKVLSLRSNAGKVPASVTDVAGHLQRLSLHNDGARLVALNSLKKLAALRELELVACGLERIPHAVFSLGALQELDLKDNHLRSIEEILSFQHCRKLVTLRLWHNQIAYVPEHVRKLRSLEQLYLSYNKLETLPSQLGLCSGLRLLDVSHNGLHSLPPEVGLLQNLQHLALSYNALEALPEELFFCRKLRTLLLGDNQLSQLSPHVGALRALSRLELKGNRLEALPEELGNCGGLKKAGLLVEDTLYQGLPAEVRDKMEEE
UniProt O95835: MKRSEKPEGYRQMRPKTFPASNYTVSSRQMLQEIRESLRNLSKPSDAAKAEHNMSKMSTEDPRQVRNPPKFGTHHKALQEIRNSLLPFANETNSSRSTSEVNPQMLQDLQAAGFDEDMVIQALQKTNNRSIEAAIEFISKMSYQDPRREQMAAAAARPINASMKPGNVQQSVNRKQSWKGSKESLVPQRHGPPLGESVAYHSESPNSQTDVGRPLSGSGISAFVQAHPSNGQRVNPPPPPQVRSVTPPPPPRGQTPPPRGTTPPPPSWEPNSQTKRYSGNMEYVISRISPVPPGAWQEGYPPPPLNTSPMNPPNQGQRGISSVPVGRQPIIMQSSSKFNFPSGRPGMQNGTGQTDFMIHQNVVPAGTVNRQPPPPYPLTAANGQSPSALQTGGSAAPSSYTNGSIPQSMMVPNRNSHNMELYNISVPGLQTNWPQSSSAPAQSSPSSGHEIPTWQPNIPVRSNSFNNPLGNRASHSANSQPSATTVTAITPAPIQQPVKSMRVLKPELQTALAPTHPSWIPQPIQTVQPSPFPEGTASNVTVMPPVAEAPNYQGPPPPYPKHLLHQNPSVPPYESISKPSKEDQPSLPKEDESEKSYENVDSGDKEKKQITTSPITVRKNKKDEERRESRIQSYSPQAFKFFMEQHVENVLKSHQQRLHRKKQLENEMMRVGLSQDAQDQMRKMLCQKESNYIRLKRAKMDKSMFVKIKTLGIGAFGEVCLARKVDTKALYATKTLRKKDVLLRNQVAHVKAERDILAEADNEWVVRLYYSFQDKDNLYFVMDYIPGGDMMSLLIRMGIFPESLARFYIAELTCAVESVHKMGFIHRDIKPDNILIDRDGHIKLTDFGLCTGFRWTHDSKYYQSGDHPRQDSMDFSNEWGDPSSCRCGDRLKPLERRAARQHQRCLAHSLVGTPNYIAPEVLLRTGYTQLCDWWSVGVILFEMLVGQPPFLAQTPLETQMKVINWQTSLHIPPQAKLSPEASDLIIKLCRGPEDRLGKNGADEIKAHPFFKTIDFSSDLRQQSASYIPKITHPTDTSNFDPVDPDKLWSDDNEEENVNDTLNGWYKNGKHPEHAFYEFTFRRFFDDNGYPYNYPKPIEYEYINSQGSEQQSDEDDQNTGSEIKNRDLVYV
UniProt Q8TBB1: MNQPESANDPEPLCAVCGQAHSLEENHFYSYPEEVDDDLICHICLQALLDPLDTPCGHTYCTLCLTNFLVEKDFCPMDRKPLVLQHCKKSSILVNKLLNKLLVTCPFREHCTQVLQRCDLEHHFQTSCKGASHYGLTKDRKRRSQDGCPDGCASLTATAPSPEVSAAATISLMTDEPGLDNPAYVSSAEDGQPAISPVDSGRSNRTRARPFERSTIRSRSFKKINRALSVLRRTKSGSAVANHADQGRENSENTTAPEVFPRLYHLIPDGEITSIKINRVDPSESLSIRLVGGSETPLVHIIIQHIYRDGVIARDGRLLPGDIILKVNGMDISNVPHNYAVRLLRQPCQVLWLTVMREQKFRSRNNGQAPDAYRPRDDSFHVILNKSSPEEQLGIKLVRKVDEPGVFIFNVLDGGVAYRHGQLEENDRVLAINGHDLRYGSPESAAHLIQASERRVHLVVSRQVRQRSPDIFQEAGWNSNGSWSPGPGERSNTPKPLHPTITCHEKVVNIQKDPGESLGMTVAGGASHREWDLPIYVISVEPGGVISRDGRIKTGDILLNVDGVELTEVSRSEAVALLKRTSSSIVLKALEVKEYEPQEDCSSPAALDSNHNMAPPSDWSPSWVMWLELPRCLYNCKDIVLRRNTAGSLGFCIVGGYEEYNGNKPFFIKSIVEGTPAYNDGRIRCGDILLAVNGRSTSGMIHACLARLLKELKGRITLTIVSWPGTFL
UniProt Q99732: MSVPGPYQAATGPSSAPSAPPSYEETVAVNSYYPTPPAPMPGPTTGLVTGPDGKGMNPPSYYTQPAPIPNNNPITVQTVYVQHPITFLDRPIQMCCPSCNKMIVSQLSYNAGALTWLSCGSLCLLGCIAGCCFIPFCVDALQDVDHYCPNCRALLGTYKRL

This is one part of the list.

Assay in all cases: log2 fold change, soluble protein after heating vs DMSO (PISA); higher = thermal stabilisation; K562 lysate, 10 uM; active = over 0.2 and 3.5 SD of the protein, either way, in both replicates (recomputed)
Compound in assay [1]: Cc1sc2c(c1C)C(c1ccc(Cl)cc1)=N[C@@H](CC(=O)OC(C)(C)C)c1nnc(C)n1-2
The procedure, abridged: (§1)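 Thermal stability, expressed as log-two fold change relative to solvent controls, is given from duplicates. Crude K562 extract in PBS pH 7.4 with 1 mM MgCl2, at 1 mg/mL protein, was treated with 10 μM compound for 30 min and heated in aliquots for 3 min across 48°C-58°C. After pooling, adjustment to 0.5% NP-40 at 4°C and centrifugation at 21,000xg for 90 min, supernatant protein was measured by TMTpro 16plex LC-MS/MS with channel sums equalised.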

Compound in assay [2]: CC1=C2C(=CC=C1)N=C(N(C2=O)C3=CC=CC=C3C)CN4C=NC5=C(N=CN=C54)N
The procedure, abridged: as §1

Compound in assay [3]: c1ccc([C@@H]2C[C@H]2NC2CCNCC2)cc1
The gist of the method: as §1

Compound in assay [4]: C1=CC=C(C=C1)[C@H](COC2=CC3=C(C=C2)NC(=O)N3)NC(=O)C4=CC=CN(C4=O)CC5=CC(=C(C=C5)F)F
The gist of the method: as §1

Compound in assay [5]: CC1=C(SC2=C1C(=N[C@H](C3=NN=C(N32)C)CC(=O)N)C4=CC=C(C=C4)Cl)C
The gist of the method:
as §1

On to LRP5 (UniProt O75197), for which, in assay [1], the log2 fold change is inactive: -0.12.
Consider LRRIQ1 (UniProt Q96JM4), for which the log2 fold change in assay [2] was inactive: -0.002.
For the target LRIG2 (UniProt O94898), the log2 fold change in assay [2] was inactive: -0.078; in assay [1], inactive: -0.117; in assay [3], inactive: -0.095.
As for LEF1 (UniProt Q9UJU2), the log2 fold change is inactive: 0.012 in assay [2] and inactive: -0.049 in assay [3].
As to LPGAT1 (UniProt Q92604), the log2 fold change in assay [1] was inactive: -0.197; in assay [3], inactive: 0.215.
Take LEMD3 (UniProt Q9Y2U8): the log2 fold change was inactive: 0.223 in assay [4], inactive: 0.227 in assay [5] and inactive: 0.034 in assay [3].
Turning to LONP2 (UniProt Q86WA8), the log2 fold change was inactive: 0.045 in assay [2] and inactive: -0.232 in assay [3].
On to LEMD2 (UniProt Q8NC56), for which the figures for the log2 fold change in assay [1] and in assay [3] were inactive: -0.11 and inactive: 0.045, respectively.
On to LRIF1 (UniProt Q5T3J3), for which the log2 fold change was inactive: -0.072 in assay [2], inactive: 0.048 in assay [1] and inactive: -0.071 in assay [3].
For the target LRRC8C (UniProt E9PHY6), the log2 fold change in assay [2] is inactive: 0.067.
For LRRCC1 (UniProt Q9C099), the log2 fold change is inactive: 0.059 in assay [2] and inactive: 0.082 in assay [1].
On the same counts, the results for LMO4 (UniProt P61968) are inactive: 0.051 and inactive: 0.231.
As for LRRC9 (UniProt Q6ZRR7), the log2 fold change in assay [2] was inactive: 0.008; in assay [3], inactive: 0.209.
With LGALS3BP (UniProt Q08380), the log2 fold change is inactive: 0.159 in assay [2], inactive: -0.152 in assay [1] and inactive: -0.071 in assay [3].
LCN2 (UniProt P80188): in assay [2], the log2 fold change is inactive: 0.194.
Consider LRG1 (UniProt P02750), for which the log2 fold change in assay [4] is inactive: -0.024; in assay [5], inactive: 0.092; in assay [3], inactive: -0.004.
Regarding LONRF2 (UniProt Q1L5Z9), the log2 fold change in assay [1] was inactive: -0.114; in assay [3], inactive: 0.033.
For LMBR1 isoform 3 (UniProt Q8WVP7), the figures for the log2 fold change in assay [4], in assay [5] and in assay [3] were inactive: -0.046, inactive: 0.064 and inactive: -0.068, respectively.
With LCORL (UniProt Q8N3X6), the log2 fold change in assay [2] is inactive: -0.081; in assay [3] it was inactive: -0.001.
On to LDHA isoform 4 (UniProt P00338), for which, in assay [3], the log2 fold change is inactive: 0.311.
For the target LRRC8E (UniProt Q6NSJ5), the log2 fold change in assay [2] is inactive: -0.027; in assay [3] it was inactive: -0.029.
For the target LRPPRC (UniProt H7C3W8), the log2 fold change in assay [2] is inactive: 0.219.
As for LRRC42 (UniProt Q9Y546), the log2 fold change in assay [2] was inactive: 0.02; in assay [1] it was inactive: 0.037; in assay [3] it was inactive: 0.088.
In the case of LBH (UniProt Q53QV2), the results for the log2 fold change in assay [1] and in assay [3] were inactive: -0.01 and inactive: 0.02, respectively.
Turning to LLGL2 (UniProt Q6P1M3), the figures for the log2 fold change in assay [2] and in assay [1] were inactive: -0.25 and inactive: -0.076, respectively.
LDHA (UniProt F5GZQ4): the log2 fold change in assay [4] was inactive: -0.112; in assay [5], inactive: 0.159; in assay [3], inactive: -0.132.
As for LRP1 (UniProt Q07954), the log2 fold change in assay [2] was inactive: 0.125.
Take LIN52 (UniProt Q52LA3): the log2 fold change in assay [1] was inactive: 0.111.
As for LCA5 (UniProt Q86VQ0), in assay [2], the log2 fold change is inactive: 0.03.
For LIN28A (UniProt Q9H9Z2), the log2 fold change in assay [4] is inactive: -0.056; in assay [5], inactive: 0.154; in assay [3], inactive: -0.216.
Turning to LATS1 (UniProt O95835), the log2 fold change in assay [1] is inactive: -0.031; in assay [3] it was inactive: 0.149.
Take LRRC45 (UniProt Q96CN5): the log2 fold change in assay [1] was inactive: 0.059.
Same read-out and setting: to LNX1 (UniProt Q8TBB1) belongs inactive: -0.036.
On to LITAF (UniProt Q99732), for which the log2 fold change in assay [1] is inactive: -0.028.
On to LRFN4 (UniProt Q6PJG9), for which the log2 fold change is inactive: -0.015 in assay [2], inactive: -0.182 in assay [1] and inactive: 0.025 in assay [3].
